# Entries after “also recorded” stand apart in the source; their conditions may differ. At least one peptide structure holds a part that was inferred or is arguable (an end, a ring closure or a residue). Some entries repeat one wording, which the source may state once for all of them. Residues, ends and D or L forms follow the SMILES beside them.
# Legend:
# [1] = test system: Murine Thymocytes; assay: T cell proliferation assay, [3H] thymidine incorporation in murine thymocytes; type: cell-based, mouse; conditions: for T cell proliferation (in words): murine thymocytes (Table 2); for [3H] Thymidine Incorporation, Murine Thymocytes: standard deviation in
# [2] = test system: male, New Zealand white pasteurella-free rabbits; assay: Rabbit sleep (EEG) and body temperature after ICV injection; type: in vivo; conditions: for Colonic Temperature Start: at the time of injection; for Colonic Temperature End: end of 6-h recording session; for NREMS / REMS: six-hour recording period; for somnogenic and pyrogenic activity: effect on sleep or Tbr (in words): ICV, doses of Table 3
# Description: A lateral cerebral ventricular guide cannula, a thermistor, and stainless steel screw electroencephalographic (EEG) electrodes were surgically implanted into male, New Zealand white pasteurella-free rabbits (about 3.5 kg). EEG electrodes were placed over the frontal and parietal cortices A 50,000 ohm calibrated thermistor (Model 4018, Omega Engineering, Stamford, Conn.) was implanted over the parietal cortex to measure brain temperature (Tbr). Insulated leads from the screws and the thermistor were routed to an amphenol plug attached to the skull with dental acrylic (DUZ-ALL, Coralite Dental Products, Skokie, Ill.). The guide cannula was placed in the left lateral cerebral ventricle. A minimum of two weeks was allowed for recovery before the animals were habituated to the recording chambers (Hotpack 352600, Philadelphia, Pa.). Food and water were available ad libitum. Each recording chamber contained an electronic swivel (Stoelting, Chicago, Ill.) suspended by a shock-absorbing system. A flexible tether connected the swivel to the Amphenol connector on the rabbit's head, thus allowing freedom of movement. An accelerometer (Grass, SPAI, Quincy, Mass.) attached to the shock-absorbing system provided an indication of body movement. The cables from the swivel and the accelerometer were connected to Grass 7D polygraphs in an adjacent room. The polygraphs recorded EEG, Tbr, and body movement for each animal. The EEG for each rabbit was passed through band-pass filters with the 0.5-3.5 Hz (delta), 4.0-7.5 Hz (theta), 8.0-12.5 Hz (alpha), and 13.0-15.0 Hz (beta) frequency bands rectified and averaged for 1-min intervals by a Buxco model 24/32 data logger (Buxco Electronics, Sharon, Conn.). These values for 1-min periods were used to compute hourly averages. EEG amplitudes in the delta frequency band during 1-min epochs of NREMS for each of the six postinjection hours were also determined. The 10 samples of greatest magnitude in each hour were averaged for each rabbit during control and test NREM sleep periods. […] Tbr S were also recorded using a data logger (Acrosystems 400, Beverly, Mass.), with values for each rabbit sampled at 10-min intervals. NREM sleep and REM sleep were measured as a percent of time over a six-hour recording period. Colonic temperatures (Tco) were taken with a flexible thermistor (YSI, Inc., Yellow Springs, Ohio) at the time of injection and at the end of 6-h recording session. IL1 fragments were dissolved in appropriate volumes of artificial cerebrospinal fluid (aCSF) (2 mM KC1, 1.15 mM CaCl2, and 0.96 mM MgCl2 in pyrogen free saline, […] NaCl [Abbott, N. Chicago, Ill.] Hu-rIL1β was supplied in phosphate-buffered saline (PBS) (0.4 mg/ml). All substances were injected into a lateral cerebral ventricle (ICV). Injection volumes were 12-25 μl per rabbit; each injection lasted about 2 min. Animals were injected between 0900 and 1000 h. Control recordings were obtained from each animal after injection of vehicle (aCSF). After injections, animals were recorded from the next 6 h. Data from all experiments were analyzed with the SPSS^x Information System. Friedman's test for k-related samples was used to test for differences across the 6-h recording periods. If significant differences were indicated, the Wilcoxon matched-pairs signed-ranks test was used to identify the specific hours in which the differences occurred. An alpha level of P<0.05 was accepted as indicating significance.
# [3] = test system: adherent rheumatoid synovial cells (ARSC); assay: PGE2 production by adherent rheumatoid arthritis synovial cells; type: cell-based, human; conditions: for PgE2 levels: adherent RA cells in serum-free MEM, 48 h exposure, mean (standard deviation), detection limit 10 ng/ml
# [4] = test system: Murine D10 Cells; assay: T cell proliferation assay, [3H] thymidine incorporation in murine T cell line D10; type: cell-based, mouse; conditions: for [3H] Thymidine Incorporation, Murine D10 Cells: standard deviation in, phytohemmagglutinin 1 μg/ml as costimulant
# Protocol: Thymus glands were removed from 6-10 week old CD1 mice after mice had been sacrificed by cervical dislocation. Thymocytes were isolated by gently homogenizing the thymus glands in a dounce homogenizer. Thymocytes were suspended in RPMI 1640 containing 7.5% FCS and 5×10-^6 M 2-mercaptoethanol. Aliquots of the cell suspension (100 μl) were dispensed into wells of flat bottom microtiter plates (Linbro Plastics), and samples (50 μl) suspended in RPMI 1640 were added to appropriate wells. Plates were incubated at 37° C., 5% CO2, in a humidified atmosphere for 60 h, and wells were pulsed with [^3 H] thymidine (1 μCi, […]) for 12h. After the 12-h pulse, cells were harvested onto paper filter pads with a multiple-sample harvester, and thymocyte proliferation was determined by scintillation counting. In some experiments, the murine T cell line D10 was used instead of thymocytes as target cells using phytohemmagglutinin (1 μg/ml) as costimulant.
smiles,measurement,setting,value
CC(C)C[C@H](NC(=O)[C@H](CC(N)=O)NC(=O)[C@H](CCCCN)NC(=O)[C@H](CCC(=O)O)NC(=O)[C@H](CCCCN)NC(=O)[C@@H](N)CC(C)C)C(=O)N[C@@H](Cc1ccc(O)cc1)C(=O)N[C@@H](CC(C)C)C(=O)N[C@@H](CO)C(=O)N[C@@H](CS)C(=O)N[C@H](C(=O)N[C@@H](CC(C)C)C(=O)N[C@@H](CCCCN)C(=O)N[C@@H](CC(=O)O)C(=O)N[C@@H](CC(=O)O)C(=O)N[C@@H](CCCCN)C(=O)N1CCC[C@H]1C(=O)N[C@H](C(=O)N[C@@H](CC(C)C)C(=O)N[C@@H](CCC(N)=O)C(=O)N[C@@H](CC(C)C)C(=O)N[C@@H](CCC(=O)O)C(=O)N[C@@H](CO)C(=O)N[C@H](C(=O)N[C@@H](CC(=O)O)C(=O)N1CCC[C@H]1C(=O)N[C@@H](CCCCN)C(=O)N[C@@H](CC(N)=O)C(=O)N[C@@H](Cc1ccc(O)cc1)C(=O)N1CCC[C@H]1C(=O)O)C(C)C)[C@@H](C)O)C(C)C [Peptide 178-207] (H-LKEKNLYLSCVLKDDKPTLQLESVDPKNYP-OH),T cell proliferation (in words),[1],stimulated T cell proliferation
same,"[3H] Thymidine Incorporation, Murine Thymocytes",[1],954 (86) counts per minute
same,Colonic Temperature Start,[2]; 5 μg ICV,39.1 (0.1) °C
same,Colonic Temperature End,[2]; 5 μg ICV,39.5 (0.2) °C
same,NREMS,[2]; 5 μg ICV,40.5 (2.5) percent of time
same,REMS,[2]; 5 μg ICV,7.7 (1.1) percent of time
same,Colonic Temperature Start,[2]; 25 μg ICV,39.4 (0.1) °C
same,Colonic Temperature End,[2]; 25 μg ICV,39.6 (0.0) °C
same,NREMS,[2]; 25 μg ICV,53.8 (1.9) percent of time
same,REMS,[2]; 25 μg ICV,10.8 (0.9) percent of time
same,somnogenic and pyrogenic activity: effect on sleep or Tbr (in words),[2],failed to alter sleep or Tbr
same,PgE2 levels,[3],13 (2) ng/ml
CC[C@H](C)[C@H](NC(=O)[C@H](CCC(=O)O)NC(=O)[C@@H](NC(=O)[C@H](CCCCN)NC(=O)[C@H](CC(N)=O)NC(=O)[C@H](Cc1ccccc1)NC(=O)[C@@H](NC(=O)[C@H](Cc1ccccc1)NC(=O)[C@H](CCCNC(=N)N)NC(=O)[C@H](CCCCN)NC(=O)[C@H](CCC(=O)O)NC(=O)[C@H](CCSC)NC(=O)[C@H](CCCCN)NC(=O)[C@H](CCCCN)NC(=O)[C@@H](N)CCCCN)C(C)C)[C@@H](C)CC)C(=O)N[C@@H](CC(N)=O)C(=O)N[C@@H](CC(N)=O)C(=O)N[C@@H](CCCCN)C(=O)N[C@@H](CC(C)C)C(=O)N[C@@H](CCC(=O)O)C(=O)N[C@@H](Cc1ccccc1)C(=O)N[C@@H](CCC(=O)O)C(=O)N[C@@H](CO)C(=O)N[C@@H](C)C(=O)N[C@@H](CCC(N)=O)C(=O)N[C@@H](Cc1ccccc1)C(=O)N1CCC[C@H]1C(=O)N[C@@H](CC(N)=O)C(=O)N[C@@H](Cc1c[nH]c2ccccc12)C(=O)N[C@@H](Cc1ccc(O)cc1)C(=O)N[C@H](C(=O)N[C@@H](CO)C(=O)N[C@H](C(=O)O)[C@@H](C)O)[C@@H](C)CC [Peptide 208-240] (H-KKKMEKRFVFNKIEINNKLEFESAQFPNWYIST-OH),T cell proliferation (in words),[1],not mitogenic for T cells; also recorded: without the proliferation of T cells
same,"[3H] Thymidine Incorporation, Murine Thymocytes",[1],107 (16) counts per minute
same,effect on EEG slow-wave amplitudes (in words),[2]; 25 μg ICV,enhanced
same,effect on NREM sleep (in words),[2]; 25 μg ICV,enhanced; also recorded: increases NREM sleep
same,effect on REM sleep (in words),[2]; 25 μg ICV,"reduced REM sleep but this effect was not significant; also recorded: reduced REM sleep, but these effects were not significant"
same,effect on brain temperature Tbr (in words),[2]; 25 μg ICV,enhanced
same,effect on colonic temperature (in words),[2]; 25 μg ICV,increases colonic temperature
same,Colonic Temperature Start,[2]; 25 μg ICV,39.1 (0.1) °C
same,Colonic Temperature End,[2]; 25 μg ICV,40.0 (0.2) °C
same,NREMS,[2]; 25 μg ICV,58.8 (3.9) percent of time
same,REMS,[2]; 25 μg ICV,5.8 (1.2) percent of time
same,PGE2 production by ARSC (in words),[3],stimulated PGE2 production; also recorded: stimulates the production of PGE
same,PgE2 levels,[3],105 (18) ng/ml
CC[C@H](C)[C@H](NC(=O)[C@H](CC(=O)O)NC(=O)[C@H](CCC(N)=O)NC(=O)CNC(=O)CNC(=O)[C@H](CCCCN)NC(=O)[C@@H](NC(=O)CNC(=O)CNC(=O)[C@H](CC(C)C)NC(=O)[C@H](Cc1ccccc1)NC(=O)[C@@H](NC(=O)[C@@H]1CCCN1)C(C)C)[C@@H](C)O)C(=O)N[C@H](C(=O)N[C@@H](CC(=O)O)C(=O)N[C@@H](Cc1ccccc1)C(=O)N[C@H](C(=O)N[C@@H](CCSC)C(=O)N[C@@H](CCC(N)=O)C(=O)N[C@@H](Cc1ccccc1)C(=O)N[C@H](C(=O)N[C@@H](CO)C(=O)N[C@@H](CO)C(=O)O)C(C)C)[C@@H](C)O)[C@@H](C)O [Peptide 247-269] (H-PVFLGGTKGGQDITDFTMQFVSS-OH),Colonic Temperature Start,[2]; 1 μg ICV,39.4 (0.1) °C
same,Colonic Temperature End,[2]; 1 μg ICV,39.7 (0.1) °C
same,NREMS,[2]; 1 μg ICV,45.6 (1.9) percent of time
same,REMS,[2]; 1 μg ICV,9.3 (1.6) percent of time
same,Colonic Temperature Start,[2]; 5 μg ICV,39.4 (0.1) °C
same,Colonic Temperature End,[2]; 5 μg ICV,39.7 (0.1) °C
same,NREMS,[2]; 5 μg ICV,46.5 (2.3) percent of time
same,REMS,[2]; 5 μg ICV,9.8 (1.8) percent of time
same,Colonic Temperature Start,[2]; 10 μg ICV,39.2 (0.1) °C
same,Colonic Temperature End,[2]; 10 μg ICV,39.5 (0.1) °C
same,NREMS,[2]; 10 μg ICV,47.7 (2.3) percent of time
same,REMS,[2]; 10 μg ICV,7.9 (0.8) percent of time
same,somnogenic and pyrogenic activity: effect on sleep or Tbr (in words),[2],failed to alter sleep or Tbr
same,T cell proliferation (in words),[4]; murine D10 cells (Table 2),stimulated T cell proliferation
same,"[3H] Thymidine Incorporation, Murine D10 Cells",[4],3179 (50) counts per minute
CC(C)C[C@H](NC(=O)[C@H](CO)NC(=O)[C@H](CCCCN)NC(=O)[C@H](CCC(=O)O)NC(=O)[C@H](CCC(=O)O)NC(=O)[C@H](CO)NC(=O)[C@H](CC(=O)O)NC(=O)[C@H](CCCNC(=N)N)NC(=O)[C@H](CC(C)C)NC(=O)[C@@H](NC(=O)[C@H](CS)NC(=O)[C@H](CC(N)=O)NC(=O)[C@H](CC(C)C)NC(=O)[C@H](CO)NC(=O)[C@H](CCCNC(=N)N)NC(=O)[C@@H](NC(=O)[C@@H]1CCCN1C(=O)[C@H](C)N)C(C)C)[C@@H](C)O)C(=O)O [Peptide 117-134] (H-APVRSLNCTLRDSEEKSL-OH),Colonic Temperature Start,[2]; 5 μg ICV,39.2 (0.1) °C
same,Colonic Temperature End,[2]; 5 μg ICV,39.7 (0.1) °C
same,NREMS,[2]; 5 μg ICV,53.4 (3.1) percent of time
same,REMS,[2]; 5 μg ICV,9.2 (0.8) percent of time
same,Colonic Temperature Start,[2]; 10 μg ICV,39.3 (0.1) °C
same,Colonic Temperature End,[2]; 10 μg ICV,39.5 (0.1) °C
same,NREMS,[2]; 10 μg ICV,48.9 (0.4) percent of time
same,REMS,[2]; 10 μg ICV,8.6 (2.2) percent of time
same,somnogenic and pyrogenic activity: effect on sleep or Tbr (in words),[2],failed to alter sleep or Tbr
same,"[3H] Thymidine Incorporation, Murine D10 Cells",[4],661 (33) counts per minute

# From patent US5075288A, “Somnogenic fragment of interleukin-1β” (The University of Tennessee Research Corporation, priority 1990, dated 1991)
